Protein sequences, listed by entry. Tags and fused reporters are not part of them. Lines headed by an entry give the natural chain unless they say otherwise; changes in a name come on top. Chains listed by the source or under a name are the forms on record and can include a tag or linker.
FLAG-TurboID-SMNΔ7 (Q16637, form named): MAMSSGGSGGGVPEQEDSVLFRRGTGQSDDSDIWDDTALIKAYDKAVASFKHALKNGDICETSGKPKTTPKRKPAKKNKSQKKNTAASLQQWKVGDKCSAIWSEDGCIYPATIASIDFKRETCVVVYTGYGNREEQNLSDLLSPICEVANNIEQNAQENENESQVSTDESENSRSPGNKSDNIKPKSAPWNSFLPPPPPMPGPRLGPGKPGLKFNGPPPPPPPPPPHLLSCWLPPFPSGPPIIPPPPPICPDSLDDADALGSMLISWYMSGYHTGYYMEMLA
UniProt P49848: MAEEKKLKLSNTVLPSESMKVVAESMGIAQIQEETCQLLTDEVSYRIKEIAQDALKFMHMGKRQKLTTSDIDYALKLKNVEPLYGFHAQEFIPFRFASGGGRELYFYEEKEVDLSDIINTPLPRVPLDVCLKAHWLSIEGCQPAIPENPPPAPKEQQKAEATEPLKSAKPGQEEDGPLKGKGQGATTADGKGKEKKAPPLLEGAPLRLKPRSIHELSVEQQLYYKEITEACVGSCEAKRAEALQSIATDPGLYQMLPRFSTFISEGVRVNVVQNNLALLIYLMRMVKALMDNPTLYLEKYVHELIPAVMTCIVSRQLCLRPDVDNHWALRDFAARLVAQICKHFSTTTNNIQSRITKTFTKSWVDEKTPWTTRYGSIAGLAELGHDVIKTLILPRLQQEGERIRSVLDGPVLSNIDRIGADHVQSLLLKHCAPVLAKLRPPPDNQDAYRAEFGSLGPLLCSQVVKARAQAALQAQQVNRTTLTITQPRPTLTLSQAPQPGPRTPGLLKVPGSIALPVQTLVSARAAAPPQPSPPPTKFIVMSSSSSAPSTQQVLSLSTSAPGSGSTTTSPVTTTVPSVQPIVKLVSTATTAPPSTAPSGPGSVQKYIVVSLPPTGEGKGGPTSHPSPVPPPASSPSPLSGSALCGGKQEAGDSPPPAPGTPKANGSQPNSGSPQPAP
UniProt P18583: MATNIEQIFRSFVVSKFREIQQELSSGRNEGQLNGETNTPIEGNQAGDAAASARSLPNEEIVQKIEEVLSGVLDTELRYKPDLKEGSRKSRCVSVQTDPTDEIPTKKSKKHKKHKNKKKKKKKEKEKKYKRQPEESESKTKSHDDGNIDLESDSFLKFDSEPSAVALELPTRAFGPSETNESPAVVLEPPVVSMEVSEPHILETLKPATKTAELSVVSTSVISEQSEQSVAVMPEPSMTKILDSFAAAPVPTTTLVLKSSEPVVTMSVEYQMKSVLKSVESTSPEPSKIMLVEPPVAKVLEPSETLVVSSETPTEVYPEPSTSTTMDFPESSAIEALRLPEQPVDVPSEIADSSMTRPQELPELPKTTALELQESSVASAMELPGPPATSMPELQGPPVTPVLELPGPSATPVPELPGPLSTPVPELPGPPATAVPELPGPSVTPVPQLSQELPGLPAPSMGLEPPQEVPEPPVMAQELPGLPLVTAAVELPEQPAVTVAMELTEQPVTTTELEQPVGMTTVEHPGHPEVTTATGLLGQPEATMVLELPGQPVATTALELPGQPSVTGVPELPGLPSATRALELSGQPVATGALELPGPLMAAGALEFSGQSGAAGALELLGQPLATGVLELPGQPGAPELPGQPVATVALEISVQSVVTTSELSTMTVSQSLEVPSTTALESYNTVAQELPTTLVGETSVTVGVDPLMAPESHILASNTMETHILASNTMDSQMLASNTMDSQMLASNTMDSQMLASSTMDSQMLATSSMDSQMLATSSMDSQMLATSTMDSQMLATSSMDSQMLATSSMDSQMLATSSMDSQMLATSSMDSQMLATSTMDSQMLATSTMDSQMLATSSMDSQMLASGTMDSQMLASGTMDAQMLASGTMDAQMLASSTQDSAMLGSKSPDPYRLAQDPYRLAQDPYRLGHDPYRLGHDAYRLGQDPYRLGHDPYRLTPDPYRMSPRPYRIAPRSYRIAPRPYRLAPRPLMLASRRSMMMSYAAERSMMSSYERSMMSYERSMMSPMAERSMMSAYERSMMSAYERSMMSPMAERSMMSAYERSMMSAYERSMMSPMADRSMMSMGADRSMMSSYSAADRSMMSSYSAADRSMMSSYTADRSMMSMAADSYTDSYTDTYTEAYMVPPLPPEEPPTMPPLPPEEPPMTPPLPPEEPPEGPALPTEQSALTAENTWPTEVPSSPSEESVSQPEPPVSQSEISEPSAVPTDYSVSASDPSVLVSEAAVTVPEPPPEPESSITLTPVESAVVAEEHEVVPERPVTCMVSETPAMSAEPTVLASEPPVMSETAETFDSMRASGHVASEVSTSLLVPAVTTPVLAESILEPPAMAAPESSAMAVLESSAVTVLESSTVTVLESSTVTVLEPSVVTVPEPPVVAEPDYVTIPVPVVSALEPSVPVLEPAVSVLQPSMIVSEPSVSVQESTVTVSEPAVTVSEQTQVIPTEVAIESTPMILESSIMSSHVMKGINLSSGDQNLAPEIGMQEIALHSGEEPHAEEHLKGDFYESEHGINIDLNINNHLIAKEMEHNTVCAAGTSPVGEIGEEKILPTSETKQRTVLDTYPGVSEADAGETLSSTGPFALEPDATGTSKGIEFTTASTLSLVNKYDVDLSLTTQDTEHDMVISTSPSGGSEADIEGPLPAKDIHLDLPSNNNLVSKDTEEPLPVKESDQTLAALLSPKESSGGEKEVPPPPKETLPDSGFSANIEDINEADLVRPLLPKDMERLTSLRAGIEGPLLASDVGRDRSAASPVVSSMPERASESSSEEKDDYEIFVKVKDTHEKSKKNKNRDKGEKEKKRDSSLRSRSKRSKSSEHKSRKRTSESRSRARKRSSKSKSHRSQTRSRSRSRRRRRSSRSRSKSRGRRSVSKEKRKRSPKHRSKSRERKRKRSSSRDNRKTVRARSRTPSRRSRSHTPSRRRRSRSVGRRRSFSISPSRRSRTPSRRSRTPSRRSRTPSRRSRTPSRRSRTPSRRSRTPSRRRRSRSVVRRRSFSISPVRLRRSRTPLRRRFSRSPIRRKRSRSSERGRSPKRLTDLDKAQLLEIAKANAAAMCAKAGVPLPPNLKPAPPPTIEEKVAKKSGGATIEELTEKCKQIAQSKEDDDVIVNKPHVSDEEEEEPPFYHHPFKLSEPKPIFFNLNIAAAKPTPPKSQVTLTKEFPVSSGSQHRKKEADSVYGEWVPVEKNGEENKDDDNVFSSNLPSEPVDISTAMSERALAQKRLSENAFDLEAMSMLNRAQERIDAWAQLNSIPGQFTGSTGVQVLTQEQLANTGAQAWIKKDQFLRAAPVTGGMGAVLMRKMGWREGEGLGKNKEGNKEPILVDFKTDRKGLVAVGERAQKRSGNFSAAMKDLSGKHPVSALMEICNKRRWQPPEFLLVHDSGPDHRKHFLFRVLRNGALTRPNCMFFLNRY
UniProt O75165: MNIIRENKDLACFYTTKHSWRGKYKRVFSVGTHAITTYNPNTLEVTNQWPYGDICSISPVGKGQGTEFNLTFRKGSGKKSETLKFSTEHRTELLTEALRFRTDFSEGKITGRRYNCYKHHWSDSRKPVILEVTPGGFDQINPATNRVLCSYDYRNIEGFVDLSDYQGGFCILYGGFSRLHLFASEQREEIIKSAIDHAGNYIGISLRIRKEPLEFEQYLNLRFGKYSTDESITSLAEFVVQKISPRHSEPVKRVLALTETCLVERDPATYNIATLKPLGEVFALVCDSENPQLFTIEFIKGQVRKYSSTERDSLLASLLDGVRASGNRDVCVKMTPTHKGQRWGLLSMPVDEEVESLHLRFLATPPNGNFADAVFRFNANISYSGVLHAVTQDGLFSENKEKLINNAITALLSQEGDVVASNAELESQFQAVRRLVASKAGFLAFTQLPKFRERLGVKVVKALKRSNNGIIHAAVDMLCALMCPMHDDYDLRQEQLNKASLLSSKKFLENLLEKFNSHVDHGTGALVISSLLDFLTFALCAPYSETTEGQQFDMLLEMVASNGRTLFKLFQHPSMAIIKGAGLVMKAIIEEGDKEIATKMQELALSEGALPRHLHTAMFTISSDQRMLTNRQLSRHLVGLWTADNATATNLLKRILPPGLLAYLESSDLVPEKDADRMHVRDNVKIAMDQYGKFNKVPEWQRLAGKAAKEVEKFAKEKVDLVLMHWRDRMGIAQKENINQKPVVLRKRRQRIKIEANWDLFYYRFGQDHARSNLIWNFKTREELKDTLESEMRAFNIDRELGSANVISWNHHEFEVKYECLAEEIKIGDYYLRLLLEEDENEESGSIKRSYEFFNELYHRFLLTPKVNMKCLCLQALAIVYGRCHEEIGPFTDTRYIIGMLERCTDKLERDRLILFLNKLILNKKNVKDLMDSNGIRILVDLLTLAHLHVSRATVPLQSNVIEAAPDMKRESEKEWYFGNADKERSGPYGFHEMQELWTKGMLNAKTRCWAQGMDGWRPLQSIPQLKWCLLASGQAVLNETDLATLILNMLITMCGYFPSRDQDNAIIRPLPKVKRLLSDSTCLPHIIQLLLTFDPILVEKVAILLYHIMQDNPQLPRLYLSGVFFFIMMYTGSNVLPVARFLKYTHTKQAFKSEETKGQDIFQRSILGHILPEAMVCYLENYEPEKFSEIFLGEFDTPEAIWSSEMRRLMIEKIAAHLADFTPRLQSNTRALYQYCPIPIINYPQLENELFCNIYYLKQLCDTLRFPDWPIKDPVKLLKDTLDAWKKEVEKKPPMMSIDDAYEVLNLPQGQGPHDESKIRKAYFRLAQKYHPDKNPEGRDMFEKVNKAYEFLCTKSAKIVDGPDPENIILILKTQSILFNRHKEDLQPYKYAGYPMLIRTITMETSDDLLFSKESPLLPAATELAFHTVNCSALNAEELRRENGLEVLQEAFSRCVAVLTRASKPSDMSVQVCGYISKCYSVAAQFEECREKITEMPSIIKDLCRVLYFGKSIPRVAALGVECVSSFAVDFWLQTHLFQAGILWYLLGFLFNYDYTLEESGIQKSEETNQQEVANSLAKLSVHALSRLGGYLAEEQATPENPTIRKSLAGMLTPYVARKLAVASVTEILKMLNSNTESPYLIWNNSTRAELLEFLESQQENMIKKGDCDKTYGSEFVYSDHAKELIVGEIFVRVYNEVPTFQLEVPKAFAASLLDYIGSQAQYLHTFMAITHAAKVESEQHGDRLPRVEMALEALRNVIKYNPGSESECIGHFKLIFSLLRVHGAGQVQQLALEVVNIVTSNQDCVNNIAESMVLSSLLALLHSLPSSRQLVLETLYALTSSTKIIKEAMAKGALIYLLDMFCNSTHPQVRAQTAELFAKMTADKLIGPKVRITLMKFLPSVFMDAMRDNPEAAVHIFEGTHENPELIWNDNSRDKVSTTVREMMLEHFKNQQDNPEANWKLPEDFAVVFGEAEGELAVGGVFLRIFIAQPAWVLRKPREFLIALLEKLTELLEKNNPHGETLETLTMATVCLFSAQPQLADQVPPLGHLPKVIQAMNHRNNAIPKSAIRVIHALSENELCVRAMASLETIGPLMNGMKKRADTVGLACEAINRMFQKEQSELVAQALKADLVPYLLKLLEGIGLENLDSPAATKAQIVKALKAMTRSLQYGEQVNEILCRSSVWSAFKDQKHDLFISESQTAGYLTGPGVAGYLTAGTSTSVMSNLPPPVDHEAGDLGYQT
UniProt Q9BSJ2: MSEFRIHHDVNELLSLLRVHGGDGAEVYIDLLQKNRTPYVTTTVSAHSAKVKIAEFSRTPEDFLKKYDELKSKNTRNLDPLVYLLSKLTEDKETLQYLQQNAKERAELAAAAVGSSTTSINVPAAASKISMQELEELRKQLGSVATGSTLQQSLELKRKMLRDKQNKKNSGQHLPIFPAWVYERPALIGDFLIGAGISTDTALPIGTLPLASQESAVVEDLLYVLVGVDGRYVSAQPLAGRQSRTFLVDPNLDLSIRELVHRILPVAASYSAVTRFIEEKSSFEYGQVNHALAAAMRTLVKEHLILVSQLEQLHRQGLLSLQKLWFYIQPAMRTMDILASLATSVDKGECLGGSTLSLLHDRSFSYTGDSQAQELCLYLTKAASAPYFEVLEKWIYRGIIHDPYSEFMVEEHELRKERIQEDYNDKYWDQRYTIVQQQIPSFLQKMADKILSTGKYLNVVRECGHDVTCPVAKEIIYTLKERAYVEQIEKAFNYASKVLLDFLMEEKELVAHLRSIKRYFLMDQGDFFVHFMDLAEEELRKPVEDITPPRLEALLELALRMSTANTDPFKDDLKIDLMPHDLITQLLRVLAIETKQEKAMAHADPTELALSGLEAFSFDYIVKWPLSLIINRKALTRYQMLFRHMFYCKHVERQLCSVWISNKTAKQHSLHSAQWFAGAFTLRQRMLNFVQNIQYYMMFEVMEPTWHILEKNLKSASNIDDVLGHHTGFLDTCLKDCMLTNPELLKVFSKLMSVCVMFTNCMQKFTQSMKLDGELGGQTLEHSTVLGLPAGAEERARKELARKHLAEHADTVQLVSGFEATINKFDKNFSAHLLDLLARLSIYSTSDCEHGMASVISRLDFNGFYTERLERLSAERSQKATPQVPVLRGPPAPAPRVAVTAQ

According to publication doi:10.1101/2025.08.11.669646:

target: FLAG-TurboID-SMNΔ7 (human) (UniProt Q16637); assay: proximity labelling

Row | Substance | binding
1 | TAF6 (from UniProt P49848 1-677) | binds
2 | Protein SON (from UniProt P18583 1-2426) | binds
3 | DNAJC13 (from UniProt O75165 1-2243) | binds
4 | KIF5B (from UniProt P33176 1-963) | binds
5 | GEMIN7 (from UniProt Q9H840 1-131) | binds
6 | TUBGCP2 (from UniProt Q9BSJ2 1-902) | binds

No constants are given. Whether binding was seen depends on the method and setting. Binding seen in cells or lysates may run through a third protein. Here binding means that the protein was enriched with, or labelled near, the bait; the list need not be complete.
